Measurements reported in PubChem BioAssay AID1508597 (Cure First, 2020)
Shown is an unselected part of the about 2,100 reagents, in one setting of the screen. 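Calls flag viability under 80% in either arm, not effects specific to rucaparib; the reference for percent is not stated.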 Unmarked entries are inactive. Some reagents were tested in more than one well and are listed for each. No sequences are given here. Not stated in the record: the 100% reference.

- Screen: 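Genes whose silencing sensitises or protects ovarian cancer cells against rucaparib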 (primary screen)
- Cells: human ovarian carcinoma lines grown from tumours: OCI-P5x (papillary serous) and OCI-C5x (clear cell)
- Reagent: siRNA pool against human genes, 1.25 pmol siRNA per well
- Timing: 72 h or 96 h, depending on the cell culture
- Treatment: rucaparib 20 µM (about IC30) or vehicle, present until read-out
- Rucaparib or vehicle: Rucaparib
- Cell line: OCI-P5x (serous)
- Measured: 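ATP luminescence measured at 72 or 96 h according to the culture, then normalised and expressed as percent viability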
- Direction: viability, normalised: higher = more viable cells remaining
- Call rule: 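Active when normalised viability falls below 80 percent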
- Meaning of the calls: active = viability under 80%; inactive = viability 80% or more

target | PubChem SID | technical replicate | viability, normalised (%)
TLK1 | SID405526564 | 1 | 102
TLK1 | SID405526564 | 1 | 85.5
TLK1 | SID405526564 | 2 | 47.1 (active)
TLK1 | SID405526564 | 2 | 91.7
TLK1 | SID405526564 | 3 | 51.7 (active)
TLK1 | SID405526564 | 3 | 61 (active)
RARA | SID405527228 | 1 | 50.7 (active)
RARA | SID405527228 | 2 | 55.8 (active)
RARA | SID405527228 | 3 | 43.8 (active)
AAK1 | SID405527919 | 1 | 75.3 (active)
AAK1 | SID405527919 | 2 | 68.6 (active)
AAK1 | SID405527919 | 3 | 57.9 (active)
MYO6 | SID405527046 | 1 | 52.5 (active)
MYO6 | SID405527046 | 2 | 56.7 (active)
MYO6 | SID405527046 | 3 | 55.1 (active)
CBX3 | SID405528071 | 1 | 79.2 (active)
CBX3 | SID405528071 | 2 | 90.5
CBX3 | SID405528071 | 3 | 93
SMPDL3A | SID405526722 | 1 | 44.7 (active)
SMPDL3A | SID405526722 | 2 | 48.6 (active)
SMPDL3A | SID405526722 | 3 | 43.4 (active)
BLNK | SID405528033 | 1 | 37.8 (active)
BLNK | SID405528033 | 2 | 47 (active)
BLNK | SID405528033 | 3 | 50.1 (active)
PWWP2B | SID405527217 | 1 | 50.5 (active)
PWWP2B | SID405527217 | 2 | 50.7 (active)
PWWP2B | SID405527217 | 3 | 51.3 (active)

Ordered by “viability, normalised (%)” (lowest first): some entries from above
target | PubChem SID | technical replicate | viability, normalised (%)
SMPDL3A | SID405526722 | 3 | 43.4 (active)
SMPDL3A | SID405526722 | 1 | 44.7 (active)
SMPDL3A | SID405526722 | 2 | 48.6 (active)
CBX3 | SID405528071 | 1 | 79.2 (active)
CBX3 | SID405528071 | 2 | 90.5
CBX3 | SID405528071 | 3 | 93

Next results follow:
target | PubChem SID | technical replicate | viability, normalised (%)
STK4 | SID405528543 | 1 | 59.1 (active)
STK4 | SID405528543 | 2 | 45.8 (active)
STK4 | SID405528543 | 3 | 72.3 (active)
KDM2B | SID405526930 | 1 | 70.2 (active)
KDM2B | SID405526930 | 2 | 64.8 (active)
KDM2B | SID405526930 | 3 | 69.5 (active)
SLC2A9 | SID405527315 | 1 | 51.9 (active)
SLC2A9 | SID405527315 | 2 | 48.5 (active)
SLC2A9 | SID405527315 | 3 | 49.9 (active)
DDX47 | SID405528192 | 1 | 57.8 (active)
DDX47 | SID405528192 | 2 | 62.4 (active)
DDX47 | SID405528192 | 3 | 71.4 (active)
PAX5 | SID405527117 | 1 | 41.8 (active)
PAX5 | SID405527117 | 2 | 37.8 (active)
PAX5 | SID405527117 | 3 | 46.3 (active)
PRKCQ | SID405527496 | 1 | 85.8
PRKCQ | SID405527496 | 2 | 93.2
PRKCQ | SID405527496 | 3 | 81.4
SPO11 | SID405528369 | 1 | 66.3 (active)
SPO11 | SID405528369 | 2 | 69.4 (active)
SPO11 | SID405528369 | 3 | 63.7 (active)
PI4KA | SID405527424 | 1 | 98.2
PI4KA | SID405527424 | 2 | 103
PI4KA | SID405527424 | 3 | 103
PLCB2 | SID405526706 | 1 | 67.8 (active)
PLCB2 | SID405526706 | 2 | 76.3 (active)
PLCB2 | SID405526706 | 3 | 68.5 (active)
LIG4 | SID405526955 | 1 | 62.5 (active)
LIG4 | SID405526955 | 1 | 60.2 (active)
LIG4 | SID405526955 | 2 | 60.6 (active)
LIG4 | SID405526955 | 2 | 62.6 (active)
LIG4 | SID405526955 | 3 | 59.6 (active)
LIG4 | SID405526955 | 3 | 76.4 (active)
PTK7 | SID405527591 | 1 | 46.7 (active)
PTK7 | SID405527591 | 2 | 44.9 (active)
PTK7 | SID405527591 | 3 | 64.9 (active)
RIC8A | SID405527247 | 1 | 19.4 (active)
RIC8A | SID405527247 | 2 | 37.5 (active)
RIC8A | SID405527247 | 3 | 33.3 (active)
TRMT112 | SID405526588 | 1 | 64.8 (active)
TRMT112 | SID405526588 | 2 | 67.7 (active)
TRMT112 | SID405526588 | 3 | 69 (active)
NME5 | SID405527081 | 1 | 69.7 (active)
NME5 | SID405527081 | 1 | 95.6
NME5 | SID405527081 | 2 | 103
NME5 | SID405527081 | 2 | 69.5 (active)
NME5 | SID405527081 | 3 | 74 (active)
NME5 | SID405527081 | 3 | 83.3
